AC50 data for 60 molecules are collected here from PubChem BioAssay AID445 (National Center for Advancing Translational Sciences (NCATS), 2006).

Some of the results follow. Further columns of the screen follow, without active or inactive calls. Compounds called inactive in the main read-out are mostly missing here. Potencies come from curve fits of mixed quality, noted in brackets.

The test is described as follows: IkB Signaling. To be noted: ABC-DLBCL IkBa-CBG/CBR dual luciferase ratio (green luciferase fused to IkBa over red control in OCI-Ly3 lymphoma cells), 4 h. Put shortly: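 In this assay, an IκBα–CBG68 fusion accumulates when IKK-driven degradation is blocked; native CBR normalizes for cell number. OCI-Ly3 cells were treated 4 h with compound and doxycycline, then green and red light read after Chroma-Glo addition.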
Where [1] appears, read: measured here: control luc red channel unless noted.
Setting [2] is: measured here: IkB-luc green channel.
Where [3] appears, read: measured here: control luc red channel.

For `CCOC(=O)c1noc2ncnc(N3CCN(c4cccc(Cl)c4)CC3)c12`, the AC50 under setting [1] was 12.6 µM [falling, partial curve]. Take `COC(=O)c1cccc(S(=O)(=O)N2CCC(NC(=O)NC34CC5CC(CC(C5)C3)C4)CC2)c1`: under setting [1], the AC50 is 39.8 µM [falling, single point]. On the same count and under the same terms, the value for `COc1ccc(-c2nc3nc(C)cc(N4CCN(c5cccc(C(F)(F)F)c5)CC4)n3n2)cc1` was 0.316 µM [falling, partial curve]; that for `COc1ccc(CCNC(=O)c2cc3c(s2)-c2c(C)cccc2OC3)c(OC)c1` was 0.158 µM [falling, full curve]. As for `Cc1cccc2c1-c1sc(C(=O)NCc3ccc(Cl)cc3)cc1CO2`, under setting [1], the AC50 was 15.8 µM [falling, partial curve]. Still for that read-out and setting: the value for `CCN(Cc1ccccc1)C(=O)c1cc2c(=O)oc3ccc(C)cc3c2s1` was 39.8 µM [falling, single point].

Consider `Cc1cc(C(=O)Cn2nnc(-c3ccc(Cl)cc3)n2)c(C)n1CC1CCCO1` (stereo not drawn), for which, under setting [1], the AC50 was 10 µM [falling, partial curve].

For the molecule `COc1ccccc1Cn1c(=O)c2ccccc2n2c(SCc3csc(C)n3)nnc12`, the AC50 under setting [1] was 15.8 µM [falling, partial curve]. The same measure, in the same setting: the value for `COc1ccc(NC(=O)c2oc3ccccc3c2NC(=O)C(C)(C)C)cc1` was 7.94 µM [falling, partial curve]. Same read-out and setting: the value for `Cc1cccc(NC(=O)CSc2nc(=O)n(Cc3ccco3)c3c2CCC3)c1C` was 3.98 µM [falling, partial curve]. Still for that read-out and setting: the value for `CN1CCC[C@@H]1CCO[C@](C)(c1ccccc1)c1ccc(Cl)cc1` was 31.6 µM [falling, partial curve, poor fit]; that for `O=c1c(N2CCN(c3cccc(Cl)c3)CC2)csc2ccccc12` was 3.98 µM [falling, full curve]; that for `Cc1cc(C)cc(NC(=O)C(=O)NCCCN2CCOCC2)c1` was 12.6 µM [falling, partial curve]. Regarding `CCN(CC)S(=O)(=O)c1ccc(Nc2nc3ccccc3n3nnnc23)cc1`, the concentration at half-maximal activity (AC50) under setting [1] was 0.0398 µM [falling, full curve]. `CCOc1ccccc1C(=O)Nc1cc(Cl)ccc1O`: the AC50 under setting [1] was 3.98 µM [falling, full curve] [measured here: IkB-luc green channel].

Take `CC1CCCCN1CCCNC(=O)c1ccc2c(c1)sc1nc(-c3ccc(F)cc3)cn12` (stereo not drawn): under setting [1], the AC50 is 31.6 µM [falling, single point]. The same measure, in the same setting: the value for `CCc1ccc(Oc2c(C(F)(F)F)oc3c(CN4CCN(CC)CC4)c(O)ccc3c2=O)cc1` was 5.01 µM [falling, partial curve, poor fit]; that for `COc1ccc(C(=O)NCC(c2ccc(N(C)C)cc2)N2CCCC2)cc1` (stereo not drawn) was 0.01 µM [falling, full curve, poor fit].

Regarding `CC(=O)c1ccc(N2CCN(c3nc4c(S(=O)(=O)c5ccc(C)c(C)c5)nnn4c4ccc(Cl)cc34)CC2)cc1`, the AC50 under setting [1] was 0.00631 µM [falling, full curve, poor fit].

In the case of `Cc1cc(C)cc(-n2ccnc2SCC(=O)Nc2ccc(C)cc2C)c1`, the AC50 under setting [1] was 39.8 µM [falling, partial curve]. Still for that read-out and setting: the value for `O=C(CCCn1c(=O)c2ccccc2n(CC(=O)Nc2cccc(Cl)c2)c1=O)NCc1ccc2c(c1)OCO2` was 15.8 µM [falling, partial curve].

On to `CCC(C(=O)Nc1cc(OC)ccc1OC)n1c(=O)c(C(F)(F)F)nc2ccccc21` (stereo not drawn), for which the AC50 under setting [1] was 20 µM [falling, partial curve]. For `Cc1c(NC(=O)c2cc(-n3cnnc3)ccc2Cl)cccc1-c1nc2ccccc2o1`, under setting [1], the AC50 is 0.794 µM [falling, full curve]. Still for that read-out and setting: the value for `COCCn1c(C)cc(O)c(C(c2ccc(Cl)cc2)N2CCN(c3ccccc3)CC2)c1=O` (stereo not drawn) was 15.8 µM [falling, partial curve]; that for `CN1C(C(=O)c2ccccc2)=C(NC(=O)c2ccccc2Br)c2ccccc2S1(=O)=O` was 15.8 µM [falling, partial curve]. Still for that read-out and setting: the value for `OC[C@@H]1O[C@@H](n2cnc3c(NC4CCCCC4)ncnc32)[C@@H](O)[C@H]1O` was 1.58 µM [rising, full curve] [measured here: IkB-luc green channel]; that for `CCc1ccc(NC(=O)Cc2csc(COc3cccc(C)c3)n2)cc1` was 7.94 µM [falling, partial curve]; that for `Cc1nc2ccc(S(=O)(=O)NC(C(=O)N3CCN(c4ccc(Cl)cc4)CC3)C(C)C)cc2s1` (stereo not drawn) was 25.1 µM [falling, single point].

For the molecule `O=C(CSc1nnc(Cc2cccs2)n1Cc1ccco1)Nc1ccc(Br)cc1`, the AC50 reads like this: under setting [2], 25.1 µM [falling, partial curve]; under setting [3], 15.8 µM [falling, partial curve]. For `CCn1c(=O)cc(SCC(=O)NCCc2cccc(C)c2)c2ccccc21`, under setting [1], the AC50 is 25.1 µM [falling, single point]. Same read-out and setting: the value for `COc1ccc(-c2cc(C(C)=O)c(C)n2CCC(=O)Nc2ccc(C)cc2Cl)cc1` was 0.0794 µM [rising, full curve]. The same measure, in the same setting: the value for `Cc1ccc(C)c(OCCn2cc(C(=O)c3cccs3)c3ccccc32)c1` was 3.16 µM [falling, full curve].

For the molecule `Cc1cc(C)n(-c2ccc(C(=O)OCC(=O)c3c(N)n(C)c(=O)n(C)c3=O)cc2)n1`, under setting [1], the AC50 is 20 µM [falling, single point].

As to `Cc1cccc(C(=O)N2CCc3cc(CNC(=O)c4ccc(Br)o4)ccc32)c1`, the AC50 under setting [1] is 7.94 µM [falling, partial curve].

As for `COCc1cc(C)nc2sc(C(=O)Nc3ccc(OC(F)(F)F)cc3)c(N)c12`, the AC50 under setting [1] was 0.794 µM [falling, full curve, poor fit]. Still for that read-out and setting: the value for `Cc1c(C(=O)OCC2CCCCC2)[nH]c2c1C(=O)CC(c1ccc(F)cc1)C2` (stereo not drawn) was 1 µM [rising, partial curve]; that for `COc1cc(CCC(=O)OCc2nnc(-c3ccccc3)o2)cc(OC)c1OC` was 5.01 µM [falling, partial curve]. Same read-out and setting: the value for `COc1ccccc1CNC(=O)CCc1c(C)nc2c(c(C)nn2-c2ccc(C)c(C)c2)c1C` was 15.8 µM [falling, partial curve]; that for `CC(C)(C)OC(=O)N1CCC(c2c(C(=O)NCc3ccccc3)cnn2-c2ccccc2)CC1` was 31.6 µM [falling, partial curve]. The same measure, in the same setting: the value for `Cc1cccc(Nc2c(-c3cccs3)nc3nc(C)cc(C)n23)c1` was 39.8 µM [falling, single point]; that for `CCc1ccc(CNC(=O)c2cc3c(=O)n(CC)c4ccccc4c3s2)cc1` was 2.51 µM [falling, partial curve]. Take `COc1ccc(OC)c(NC(=O)Cn2c(=O)n(CC3CCCO3)c(=O)c3cc(OC)c(OC)cc32)c1` (stereo not drawn): under setting [1], the AC50 is 0.794 µM [rising, full curve].

As to `CCc1ccc(NC(=O)CSc2nc3c(sc4ccccc43)c(=O)n2CCCOC)cc1`, under setting [1], the AC50 was 3.98 µM [rising, partial curve]. For the molecule `Cc1ccc(CNC(=O)c2cnc(N3CCCCC3)c3ccccc23)cc1`, the AC50 under setting [1] was 31.6 µM [falling, single point]. On the same count and under the same terms, the value for `O=C(c1ccc2c(c1)CCN2S(=O)(=O)c1ccccc1)N1CCN(c2cccc(Cl)c2)CC1` was 7.94 µM [falling, partial curve]; that for `COc1ccc(CCNC(=O)c2cc3sc(Cl)cc3n2C)cc1OC` was 39.8 µM [falling, single point]. As for `COC(=O)c1cccc(Nc2c(-c3ccc(OC)cc3)nc3nc[nH]n23)c1`, the AC50 was 39.8 µM [rising, single point] under setting [2] and 0.0501 µM [rising, partial curve, poor fit] under setting [3]. With `O=S1(=O)C=C(Sc2nc3ccccc3s2)c2ccccc21`, the AC50 by setting is: under setting [2], 10 µM [falling, partial curve]; under setting [3], 0.794 µM [falling, partial curve]. As to `CCOC(=O)c1ccc(NC(=O)C(CC)Sc2nnc3c4ccccc4n(C)c3n2)cc1` (stereo not drawn), under setting [1], the AC50 is 6.31 µM [falling, partial curve, poor fit]. Still for that read-out and setting: the value for `COc1ccc(S(=O)(=O)N2CCC(n3cnc4cc(C(F)(F)F)ccc43)CC2)cc1` was 25.1 µM [falling, partial curve]; that for `Cc1ccc(Cl)cc1-n1ncc2c(NC3CCCCC3)ncnc21` was 3.98 µM [falling, partial curve]; that for `CC(C)NC(=O)c1cc(-c2ccc(Br)cc2)on1` was 10 µM [falling, partial curve]. For the molecule `CCOC(=O)C1CCCN(S(=O)(=O)c2ccc3c(c2)CCN3C(=O)CC)C1` (stereo not drawn), the AC50 under setting [1] was 15.8 µM [falling, partial curve]. Consider `O=C(CSc1nncn2c1cc1occc12)Nc1ccccc1C(F)(F)F`, for which the AC50 under setting [1] is 15.8 µM [falling, partial curve]. Regarding `Cc1cccc2sc(N3CCN(C(=O)CS(=O)(=O)c4ccc(F)cc4)CC3)nc12`, under setting [1], the AC50 is 39.8 µM [falling, partial curve]. Still for that read-out and setting: the value for `CCOC(=O)c1c(C)[nH]c(CCC(=O)Nc2c(Cl)cc(OC)cc2OC)c1C` was 5.01 µM [falling, partial curve]; that for `Cc1c(Cl)ccc2c1NC(=O)[C@]21[C@@H]2C(=O)N(Cc3ccccc3)C(=O)[C@@H]2[C@@H]2CCCN21` was 12.6 µM [falling, partial curve]; that for `CCc1ccc(S(=O)(=O)c2cnc3ccc(OC)cc3c2N2CCCC(C)C2)cc1` (stereo not drawn) was 25.1 µM [falling, single point]. The same measure, in the same setting: the value for `Cc1cc(C(=O)N2CCN(c3ccc(F)cc3)CC2)c2c(C)nn(-c3cccc(Cl)c3C)c2n1` was 15.8 µM [falling, partial curve]; that for `COc1ccccc1-c1cc(N)n(S(=O)(=O)c2ccc(F)c(C)c2)n1` was 2.51 µM [falling, full curve].
